Measurements reported in PubChem BioAssay AID1259327 (Drosophila RNAi Screening Center, 2017)
Here is an unselected part of about 3,100 reagents. In the full data, 378 (12%) were called active. 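Hits include both directions; z-score sign shows ATP rise or fall; raw luminescence values are not plate-normalised.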 No sequences are given here. Not stated in the record: the amount of reagent.

- Aim: 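Baseline ATP after transmembrane-protein gene knock-down with water vehicle only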
- System: Drosophila S2R+ cells
- Reagent: long dsRNA against Drosophila genes
- Time to read-out: 5 days (water added on day 4, read one day later)
- Challenge: water added as vehicle, no metal, one day before read-out
- Measured: 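Luciferase ATP signal per well, normalised to plate mean, duplicate average converted to z-score across plates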
- Reading the numbers: ATP z-score: higher = more total ATP than typical wells; ATP luminescence: higher = more total ATP
- Call rule: 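Called active when the ATP z-score exceeds 1.5 or falls below -1.5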
- Meaning of the calls: active = hit: ATP up or down; inactive = no clear ATP change

Ir64a [DRSC09760] gave ATP z-score, duplicate mean -0.189; ATP luminescence, replicate 1 (RLU) = 9.08e5; ATP luminescence, replicate 2 (RLU) = 8.35e5; inactive.
Silencing of Ir64a [DRSC39692] came out at: ATP z-score, duplicate mean -0.0212; ATP luminescence, replicate 1 (RLU) = 4.87e5; ATP luminescence, replicate 2 (RLU) = 4.40e5; inactive.
After knock-down of Tmem63 [DRSC06063], the screen gave ATP z-score, duplicate mean -0.902; ATP luminescence, replicate 1 (RLU) = 5.80e5; ATP luminescence, replicate 2 (RLU) = 4.96e5; inactive.
Tmem63 [DRSC27402] gave ATP z-score, duplicate mean 0.196; ATP luminescence, replicate 1 (RLU) = 8.80e5; ATP luminescence, replicate 2 (RLU) = 1.15e6; inactive.
After knock-down of wun2 [DRSC07566], the screen gave ATP z-score, duplicate mean 1.26; ATP luminescence, replicate 1 (RLU) = 7.35e5; ATP luminescence, replicate 2 (RLU) = 7.32e5; inactive.
With knock-down of wun2 [DRSC36974] the results were ATP z-score, duplicate mean -0.168; ATP luminescence, replicate 1 (RLU) = 5.30e5; ATP luminescence, replicate 2 (RLU) = 6.02e5; inactive.
For wun2 [DRSC36975], the entry reads ATP z-score, duplicate mean 1.33; ATP luminescence, replicate 1 (RLU) = 7.14e5; ATP luminescence, replicate 2 (RLU) = 6.71e5; inactive.
For Ca-Ma2d [DRSC29730] the deposit lists ATP z-score, duplicate mean 2.26; ATP luminescence, replicate 1 (RLU) = 7.47e5; ATP luminescence, replicate 2 (RLU) = 7.96e5; active.

Laid out differently: entries from further up.
| target | amplicon | ATP z-score, duplicate mean | ATP luminescence, replicate 1 (RLU) | ATP luminescence, replicate 2 (RLU) | outcome |
| --- | --- | --- | --- | --- | --- |
| wun2 | DRSC07566 | 1.26 | 7.35e5 | 7.32e5 | inactive |
| wun2 | DRSC36974 | -0.168 | 5.30e5 | 6.02e5 | inactive |

Next results follow.
Depletion of CG12355 [DRSC09381] gave: ATP z-score, duplicate mean 1.28; ATP luminescence, replicate 1 (RLU) = 8.39e5; ATP luminescence, replicate 2 (RLU) = 8.86e5; inactive.
For CG12355 [DRSC09883] the deposit lists ATP z-score, duplicate mean -0.155; ATP luminescence, replicate 1 (RLU) = 8.95e5; ATP luminescence, replicate 2 (RLU) = 8.57e5; inactive.
Against Fur1 [DRSC13707], the values are ATP z-score, duplicate mean 0.965; ATP luminescence, replicate 1 (RLU) = 1.14e6; ATP luminescence, replicate 2 (RLU) = 9.12e5; inactive.
With knock-down of Fur1 [DRSC16676], the screen gave ATP z-score, duplicate mean 1.35; ATP luminescence, replicate 1 (RLU) = 8.98e5; ATP luminescence, replicate 2 (RLU) = 7.94e5; inactive.
